Results are given in words; binding and its absence hold for the method and conditions named. Some binding calls cover weakened binding; strength is not graded here.

For this experiment, the target named is Ctf18 subunit of human CTF18–RFC (human) (UniProt Q8WVB6). As to the kind of experiment: co-purification; seven subunits co-expressed in insect cells; lysate over HisTrap HP, then Strep Trap XT (twin-Strep on Ctf18), TEV, Superdex 200; subunits seen by SDS–PAGE.

Consider “Ctf8 subunit of human CTF18–RFC (from UniProt P0CG13 1-121)”, for which the binding result was “binds”.
In the case of “Dcc1 subunit of human CTF18–RFC (from UniProt Q9BVC3 1-393)”, the binding result is reported as “binds”.

(Values after article PMC12928700, “Structure of the human CTF18−RFC clamp loader bound to PCNA” (eLife, 2026).)
